Measured values taken from PubChem BioAssay AID489008 (National Center for Advancing Translational Sciences (NCATS), 2010).
Inconclusive means that the source gave no clear call. Such entries were picked first, then a sample of the others. Where the call is inconclusive, the potency comes from a doubtful curve fit. Calls of active or inactive are those of the source. Calls follow the shape of the dose curve; as a rule, active = well fitted inhibition curve with a large enough effect; inconclusive = small, poorly fitted or top-dose-only effect; inactive = flat fitted curve, though single readings scatter.

Protein sequences, listed by entry. Tags and fused reporters are not part of them. Residues count along the entry.
UniProt P02791, 2-175 limits assumed: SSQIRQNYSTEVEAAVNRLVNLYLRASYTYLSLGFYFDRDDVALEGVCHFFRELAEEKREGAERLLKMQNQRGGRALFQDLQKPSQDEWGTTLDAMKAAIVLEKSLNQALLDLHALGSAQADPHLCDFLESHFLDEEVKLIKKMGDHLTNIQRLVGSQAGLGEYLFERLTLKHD

Biological target: Ferritin light chain (Equus caballus) (UniProt P02791)
Experiment: Confirmation Assay for Identification of Novel General Anesthetics; also: nearly all actives have a fitted effect of over 40% in size
Settings: apoferritin 1-aminoanthracene fluorescence displacement
Description: Anesthetic development has remained a largely empirical process. There are growing concerns about the cognitive effects of known general anesthetics and acceleration of the onset of neurodegenerative disease. The compounds' toxicity and multiple specific binding targets in the mammalian brain [4] has made them less attractive as drug leads. In this assay, a GABAergic mimetic model system, apoferritin and a profluorescent 1-aminoanthracene ligand (1-AMA), was used to construct a competitive binding assay for identification of novel general anesthetics. The assay was validated for 1-AMA using other known anesthetics, such as isoflurane (CID:3763) and propofol (CID: 4943), [6]. This particular BioAssay is a confirmation of followup compounds from primary screen AID:485281.
[1] S.L. Bianchi, T. Tran, C. Liu, S. Lin, Y. Li, J.M. Keller, R.G. Eckenhoff, and M.F. Eckenhoff, Brain and behavior changes in 12-month-old Tg2576 and nontransgenic mice exposed to anesthetics. Neurobiol Aging 29 (2008) 1002-10.
[2] Z. Xie, Y. Dong, U. Maeda, R.D. Moir, W. Xia, D.J. Culley, G. Crosby, and R.E. Tanzi, The inhalation anesthetic isoflurane induces a vicious cycle of apoptosis and amyloid beta-protein accumulation. J Neurosci 27 (2007) 1247-54.
[3] P. Honegger, and J.M. Matthieu, Selective toxicity of the general anesthetic propofol for GABAergic neurons in rat brain cell cultures. J Neurosci Res 45 (1996) 631-6.
[4] M.F. Eckenhoff, K. Chan, and R.G. Eckenhoff, Multiple specific binding targets for inhaled anesthetics in the mammalian brain. J Pharmacol Exp Ther 300 (2002) 172-9.
[5] C.A. Butts, J. Xi, G. Brannigan, A.A. Saad, S.P. Venkatachalan, R.A. Pearce, M.L. Klein, R.G. Eckenhoff, and I.J. Dmochowski, Identification of a fluorescent general anesthetic, 1-aminoanthracene. Proc Natl Acad Sci U S A 106 (2009) 6501-6.
[6] W.A. Lea, J. Xi, A. Jadhav, L. Lu, C.P. Austin, A. Simeonov, and R.G. Eckenhoff, A high-throughput approach for identification of novel general anesthetics. PLoS One 4 (2009) e7150.
Source: NIH Chemical Genomics Center [NCGC]
Assay Submitter: Roderic Eckenhoff, University of Pennsylvania
Screening Center PI: Christopher P. Austin, NIH
Probe Development: NIH Chemical Genomics Center [NCGC]
Three uL of reagents (free 1-AMA (50% saturated solution of 1-aminoanthracene
in PBS) in columns 3, 4 as negative control and 1-AMA/apoferritin mixture (10 uM horse-spleen apoferritin in 50% saturated 1-aminoanthracene in PBS) in columns 1, 2, 5-48) was dispensed into 1536-well Greiner black assay plates. Compounds (23 nL) were transferred via Kalypsys pintool equipped with 1,536-pin array (10 nL slotted pins, V&P Scientific, San Diego, CA). Titration of the positive control, propofol, were delivered via pin transfer from separate control plates to the 2nd column of each assay plate. The starting concentration of the control, dissolved in DMSO, was at 160 mM, followed by two-fold dilution points in duplicate, for a total of 16 concentrations. The plates were incubated for 10 min at room temperature, and then read on an EnVision HTS multilabel reader (Perkin-Elmer, Waltham, MA) (end point read, 3 min/plate) using Fura2 BFP excitation filter (380 nm, bandwidth 10 nm) and fluorescein emission filter (535 nm, bandwidth 25 nm) set. A LANCE/DELFIA dichroic mirror with a cutoff wavelength at 400 nm was used to maximize signal accuracy and strength. Vehicle-only plates, with DMSO being pin-transferred to the entire column 5-48 compound area, were inserted uniformly at the beginning and the end of each library in order to monitor for and record any shifts in the background. Activity was computed as the normalized fluorescence response relative to free 1-AMA and 1-AMA/apoferritin complex values. Concentration-effect relationships were derived by using curve fitting algorithms developed in-house (http://ncgc.nih.gov/pub/openhts/). […]
Potency is read from the fitted curve at half-maximal effect.

Potency, inconclusive:
Cc1ccc(C)c(NC(=O)c2nnn(Cc3ccccc3)c2N)c1 17.8 µM [inhibitor, partial curve]
Cc1nn(-c2ccc(Cl)c(Cl)c2Cl)c(=O)c2ccccc12 15.8 µM [inhibitor, partial curve]
COc1ccc(C(=O)N2CCCc3ccccc32)cc1Br 28.2 µM [inhibitor, partial curve]
CSc1ccc(CNc2ccccc2)cc1 11.2 µM [inhibitor, partial curve]
COc1ccc(NC(=O)NC2CCCCCCC2)c(OC)c1 39.8 µM [inhibitor, partial curve]
CCCCc1ccc(NC(=O)CC(C)=O)cc1 10 µM [inhibitor, partial curve]
CNC(=O)c1sccc1SCc1ccc(Cl)cc1Cl 22.4 µM [inhibitor, partial curve]
O=C1CSc2ccccc2N1Cc1ccccc1F 39.8 µM [inhibitor, partial curve]
O=C(CCOc1ccccc1)OCC(=O)c1cc2ccccc2o1 17.8 µM [inhibitor, partial curve]
CC(C)(C)C1CCc2onc(C(=O)Nc3cccnc3)c2C1 (stereo not given) 15.8 µM [inhibitor, partial curve]
Cc1cc(OC(=O)N2CCCCC2)cc(C)c1Cl 28.2 µM [inhibitor, partial curve]
O=S(=O)(Nc1cccc2ccccc12)N1CCCC1 31.6 µM [inhibitor, partial curve]
Oc1ccc(NCc2ccc(OCc3ccccc3)cc2)cc1 3.55 µM [inhibitor, full curve]
O=C(CSCc1ccco1)c1cccs1 39.8 µM [inhibitor, partial curve]
CC(C)Sc1nnc(-c2c[nH]c3ccccc23)n1C 35.5 µM [inhibitor, partial curve]
Cn1cccc1C(=O)c1ccc(Cl)cc1Cl 20 µM [inhibitor, partial curve]
COc1ccc(C(=O)n2nc(C)cc2C)cc1Br 35.5 µM [inhibitor, partial curve]
CCCC(C)C(=O)Nc1ccc(Cl)cc1Cl (stereo not given) 25.1 µM [inhibitor, partial curve]
O=C(CN1CCCCCC1)Nc1cccc2c1OCO2 35.5 µM [inhibitor, partial curve]
O=C(NC1CCCCC1)N1CCCCCC1 31.6 µM [inhibitor, partial curve]
COc1ccccc1-c1n[nH]c2c1[C@H](C)CC[C@H]2C(C)C 22.4 µM [inhibitor, partial curve]
O=C(NC1CCCCCCC1)c1ccccc1O 35.5 µM [inhibitor, partial curve]
Cc1ccc(OCc2cc(C(=O)N(C)CC3CCOCC3)no2)cc1C 17.8 µM [inhibitor, partial curve]
Cc1nc(Cl)sc1C(=O)Nc1ccc(C(C)(C)C)cc1 39.8 µM [inhibitor, partial curve]
Cc1cccc(OCc2nnc(SCC(=O)c3ccccc3)o2)c1 28.2 µM [inhibitor, partial curve]
Nc1nnc(SCc2cccc(C(F)(F)F)c2)s1 35.5 µM [inhibitor, partial curve]
Cc1ccc(NC(=O)Cn2nc(-c3ccncc3)ccc2=O)cc1Cl 25.1 µM [inhibitor, partial curve]
O=S(=O)(Nc1ccccc1)c1ccc(F)cc1 22.4 µM [inhibitor, partial curve]
O=C(c1c(Cl)cccc1Cl)N1CCCCCC1 17.8 µM [inhibitor, partial curve]
S=C(Nc1ccccc1)N1CCCCCCC1 15.8 µM [inhibitor, partial curve]
C/C(CCC(C)C)=N\Nc1cc(C)c2ccccc2n1 17.8 µM [inhibitor, partial curve]

In the list so far, two have an NH in an aromatic ring.
Potency, inconclusive:
CC(C)Sc1nnc(-c2c[nH]c3ccccc23)n1C 35.5 µM [inhibitor, partial curve]
COc1ccccc1-c1n[nH]c2c1[C@H](C)CC[C@H]2C(C)C 22.4 µM [inhibitor, partial curve]

Following part.

Potency, active:
O=S(=O)(Nc1cnc2ccccc2c1)N1CCCCCC1 28.2 µM
O=C1c2ccsc2SCCN1Cc1ccc(Cl)cc1Cl 15.8 µM
O=C(COC(=O)/C=C/c1ccccc1Cl)NC1CCCCCC1 6.31 µM
O=C1c2ccsc2SCCN1Cc1ccccc1Cl 14.1 µM
O=C(Nc1cccc(Cl)c1)OCc1cnc(Cl)s1 31.6 µM
COc1ccc(NC(C)c2ccccc2)cc1 (stereo not given) 15.8 µM
CC1CCCN(C(=O)Nc2ccc(Br)cc2Cl)C1 (stereo not given) 28.2 µM
CC(C)(Nc1ccccc1)C(=O)c1ccccc1 12.6 µM
O=C(COC(=O)CC1CC2CCC1C2)NC(=O)NC1CCCC1 (stereo not given) 15.8 µM
